Laboratory results published in the supplement of paper PMC10849652.
The list shows a part of the results.

Chains of the proteins cited; added tags and fusions are not shown. Lines headed by an entry give the natural chain unless they say otherwise; changes in a name come on top.
UniProt Q9BSW2: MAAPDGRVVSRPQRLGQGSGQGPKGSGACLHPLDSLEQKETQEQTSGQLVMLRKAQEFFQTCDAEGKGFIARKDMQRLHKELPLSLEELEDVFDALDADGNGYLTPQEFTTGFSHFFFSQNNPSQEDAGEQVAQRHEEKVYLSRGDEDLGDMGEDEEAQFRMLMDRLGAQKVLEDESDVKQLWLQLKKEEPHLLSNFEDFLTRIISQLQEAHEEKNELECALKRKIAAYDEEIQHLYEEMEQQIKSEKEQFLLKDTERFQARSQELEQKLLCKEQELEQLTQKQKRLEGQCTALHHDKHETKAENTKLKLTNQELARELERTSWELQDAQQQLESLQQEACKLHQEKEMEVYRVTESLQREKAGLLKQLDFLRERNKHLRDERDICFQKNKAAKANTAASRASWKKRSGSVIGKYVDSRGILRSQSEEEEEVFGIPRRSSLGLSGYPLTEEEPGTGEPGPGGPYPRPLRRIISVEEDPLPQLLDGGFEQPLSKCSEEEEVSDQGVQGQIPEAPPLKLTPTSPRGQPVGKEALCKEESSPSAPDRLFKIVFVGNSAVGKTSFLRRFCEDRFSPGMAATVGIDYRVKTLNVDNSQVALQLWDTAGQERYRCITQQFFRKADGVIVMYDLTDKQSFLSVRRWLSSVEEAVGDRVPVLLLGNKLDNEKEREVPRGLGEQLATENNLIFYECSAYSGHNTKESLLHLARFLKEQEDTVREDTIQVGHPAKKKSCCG
UniProt P61201: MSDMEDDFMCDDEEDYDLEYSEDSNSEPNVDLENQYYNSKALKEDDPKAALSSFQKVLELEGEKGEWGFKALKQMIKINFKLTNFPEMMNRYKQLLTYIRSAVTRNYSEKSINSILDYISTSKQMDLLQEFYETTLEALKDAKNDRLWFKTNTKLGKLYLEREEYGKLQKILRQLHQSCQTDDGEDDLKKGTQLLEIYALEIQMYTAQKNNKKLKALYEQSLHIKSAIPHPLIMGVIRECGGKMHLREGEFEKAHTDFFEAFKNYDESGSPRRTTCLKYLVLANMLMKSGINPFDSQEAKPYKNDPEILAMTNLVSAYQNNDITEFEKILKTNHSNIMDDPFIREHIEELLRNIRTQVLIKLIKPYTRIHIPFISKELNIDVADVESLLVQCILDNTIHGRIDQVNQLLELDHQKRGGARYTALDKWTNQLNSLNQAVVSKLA
UniProt Q9P000, whole entry, looked up: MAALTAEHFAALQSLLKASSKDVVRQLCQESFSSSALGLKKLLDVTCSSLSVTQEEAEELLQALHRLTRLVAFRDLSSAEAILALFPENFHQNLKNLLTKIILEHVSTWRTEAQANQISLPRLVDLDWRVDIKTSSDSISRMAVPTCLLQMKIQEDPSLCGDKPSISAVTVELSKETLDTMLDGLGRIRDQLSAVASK
UniProt Q99627: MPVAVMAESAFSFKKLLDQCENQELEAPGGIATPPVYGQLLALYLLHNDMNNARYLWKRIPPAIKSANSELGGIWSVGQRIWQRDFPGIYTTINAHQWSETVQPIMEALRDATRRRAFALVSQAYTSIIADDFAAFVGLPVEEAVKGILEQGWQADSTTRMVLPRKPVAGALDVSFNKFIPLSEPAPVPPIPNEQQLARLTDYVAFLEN
UniProt Q14019: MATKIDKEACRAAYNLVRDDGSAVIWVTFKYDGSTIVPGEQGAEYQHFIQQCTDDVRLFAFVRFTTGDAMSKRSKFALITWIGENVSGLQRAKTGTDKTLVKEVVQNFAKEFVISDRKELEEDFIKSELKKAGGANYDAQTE
UniProt Q7L5N1: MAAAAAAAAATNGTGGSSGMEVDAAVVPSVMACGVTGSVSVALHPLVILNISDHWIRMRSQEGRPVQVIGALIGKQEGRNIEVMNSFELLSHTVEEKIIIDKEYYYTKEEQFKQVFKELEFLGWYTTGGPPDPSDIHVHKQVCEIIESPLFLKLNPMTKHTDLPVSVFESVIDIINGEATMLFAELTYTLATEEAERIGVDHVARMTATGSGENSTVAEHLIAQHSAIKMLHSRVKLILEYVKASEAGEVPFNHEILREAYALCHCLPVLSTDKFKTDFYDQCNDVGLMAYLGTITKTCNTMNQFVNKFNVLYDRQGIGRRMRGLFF
UniProt P50416: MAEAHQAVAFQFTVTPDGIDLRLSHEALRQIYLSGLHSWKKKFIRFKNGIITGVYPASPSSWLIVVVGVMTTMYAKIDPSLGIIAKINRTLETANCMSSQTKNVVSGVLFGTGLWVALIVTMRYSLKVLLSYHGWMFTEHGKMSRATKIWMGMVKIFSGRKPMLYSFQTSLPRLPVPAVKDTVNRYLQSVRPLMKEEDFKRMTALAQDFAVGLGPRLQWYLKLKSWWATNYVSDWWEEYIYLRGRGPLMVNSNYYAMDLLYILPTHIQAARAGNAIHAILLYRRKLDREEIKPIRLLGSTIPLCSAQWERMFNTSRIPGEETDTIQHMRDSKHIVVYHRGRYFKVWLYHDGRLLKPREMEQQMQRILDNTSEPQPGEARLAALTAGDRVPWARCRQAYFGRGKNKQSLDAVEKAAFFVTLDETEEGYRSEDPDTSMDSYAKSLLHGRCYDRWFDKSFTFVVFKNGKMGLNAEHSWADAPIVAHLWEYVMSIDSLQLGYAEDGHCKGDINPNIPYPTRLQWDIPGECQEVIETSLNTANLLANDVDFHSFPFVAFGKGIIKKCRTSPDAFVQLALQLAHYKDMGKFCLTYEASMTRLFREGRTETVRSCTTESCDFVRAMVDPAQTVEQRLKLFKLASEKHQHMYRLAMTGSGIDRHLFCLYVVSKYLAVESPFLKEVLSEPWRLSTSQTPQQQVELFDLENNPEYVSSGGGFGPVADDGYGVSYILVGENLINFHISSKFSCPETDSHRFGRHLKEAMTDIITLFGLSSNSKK
UniProt Q6P4Q7: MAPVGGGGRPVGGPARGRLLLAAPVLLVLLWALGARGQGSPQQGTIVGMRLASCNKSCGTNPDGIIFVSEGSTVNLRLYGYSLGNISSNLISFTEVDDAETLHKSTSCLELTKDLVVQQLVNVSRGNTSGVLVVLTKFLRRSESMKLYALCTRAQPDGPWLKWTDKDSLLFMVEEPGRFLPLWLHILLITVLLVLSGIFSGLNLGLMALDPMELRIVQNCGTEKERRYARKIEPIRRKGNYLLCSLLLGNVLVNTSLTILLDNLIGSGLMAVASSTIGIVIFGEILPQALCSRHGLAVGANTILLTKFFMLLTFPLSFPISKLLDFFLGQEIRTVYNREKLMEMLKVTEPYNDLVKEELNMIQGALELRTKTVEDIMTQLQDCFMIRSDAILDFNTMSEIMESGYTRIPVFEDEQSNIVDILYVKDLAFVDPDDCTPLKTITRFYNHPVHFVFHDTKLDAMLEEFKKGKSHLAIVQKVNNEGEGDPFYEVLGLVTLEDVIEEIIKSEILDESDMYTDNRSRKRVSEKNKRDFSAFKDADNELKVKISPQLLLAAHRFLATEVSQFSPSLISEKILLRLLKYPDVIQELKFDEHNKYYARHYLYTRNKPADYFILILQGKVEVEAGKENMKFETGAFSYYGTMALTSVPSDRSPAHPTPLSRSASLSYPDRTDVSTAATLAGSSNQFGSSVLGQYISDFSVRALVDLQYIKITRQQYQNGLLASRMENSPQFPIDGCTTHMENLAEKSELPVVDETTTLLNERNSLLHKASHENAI
UniProt Q9BRF8, whole entry, looked up: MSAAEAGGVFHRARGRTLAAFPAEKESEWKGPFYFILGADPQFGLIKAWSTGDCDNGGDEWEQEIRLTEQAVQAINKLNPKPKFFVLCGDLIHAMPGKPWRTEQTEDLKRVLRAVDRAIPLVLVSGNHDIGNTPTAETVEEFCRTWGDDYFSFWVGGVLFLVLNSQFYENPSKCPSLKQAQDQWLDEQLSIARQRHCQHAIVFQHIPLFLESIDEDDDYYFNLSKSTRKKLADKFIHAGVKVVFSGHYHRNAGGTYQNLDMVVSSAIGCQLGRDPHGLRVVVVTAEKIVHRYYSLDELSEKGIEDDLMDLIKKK
UniProt Q86X83, whole entry, looked up: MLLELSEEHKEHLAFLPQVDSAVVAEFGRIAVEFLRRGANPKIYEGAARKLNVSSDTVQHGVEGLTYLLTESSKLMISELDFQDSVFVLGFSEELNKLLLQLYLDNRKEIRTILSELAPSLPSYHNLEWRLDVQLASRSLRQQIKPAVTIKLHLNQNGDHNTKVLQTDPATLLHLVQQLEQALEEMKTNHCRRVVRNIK
UniProt Q8N668, whole entry, looked up: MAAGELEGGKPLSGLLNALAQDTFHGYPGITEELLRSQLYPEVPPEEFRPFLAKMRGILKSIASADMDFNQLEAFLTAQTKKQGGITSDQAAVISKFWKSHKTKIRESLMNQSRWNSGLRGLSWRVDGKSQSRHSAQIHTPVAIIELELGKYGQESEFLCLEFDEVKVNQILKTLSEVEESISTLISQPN
UniProt Q8NI60: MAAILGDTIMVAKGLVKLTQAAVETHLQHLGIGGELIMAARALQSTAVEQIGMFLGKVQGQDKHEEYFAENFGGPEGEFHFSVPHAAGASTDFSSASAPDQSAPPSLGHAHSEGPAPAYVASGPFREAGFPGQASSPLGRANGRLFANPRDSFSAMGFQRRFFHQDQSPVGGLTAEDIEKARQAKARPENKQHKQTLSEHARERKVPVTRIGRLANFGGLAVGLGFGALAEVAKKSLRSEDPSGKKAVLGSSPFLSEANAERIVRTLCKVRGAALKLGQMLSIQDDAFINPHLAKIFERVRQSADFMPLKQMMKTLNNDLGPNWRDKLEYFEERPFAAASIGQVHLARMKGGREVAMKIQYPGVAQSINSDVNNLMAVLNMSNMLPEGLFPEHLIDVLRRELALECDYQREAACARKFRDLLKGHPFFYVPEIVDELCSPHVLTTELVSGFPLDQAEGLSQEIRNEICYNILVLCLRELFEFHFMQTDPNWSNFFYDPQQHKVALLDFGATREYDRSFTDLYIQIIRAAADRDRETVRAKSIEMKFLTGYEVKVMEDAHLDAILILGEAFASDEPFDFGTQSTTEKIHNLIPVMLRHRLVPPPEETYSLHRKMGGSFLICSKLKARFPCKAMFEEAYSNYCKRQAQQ
UniProt O43405: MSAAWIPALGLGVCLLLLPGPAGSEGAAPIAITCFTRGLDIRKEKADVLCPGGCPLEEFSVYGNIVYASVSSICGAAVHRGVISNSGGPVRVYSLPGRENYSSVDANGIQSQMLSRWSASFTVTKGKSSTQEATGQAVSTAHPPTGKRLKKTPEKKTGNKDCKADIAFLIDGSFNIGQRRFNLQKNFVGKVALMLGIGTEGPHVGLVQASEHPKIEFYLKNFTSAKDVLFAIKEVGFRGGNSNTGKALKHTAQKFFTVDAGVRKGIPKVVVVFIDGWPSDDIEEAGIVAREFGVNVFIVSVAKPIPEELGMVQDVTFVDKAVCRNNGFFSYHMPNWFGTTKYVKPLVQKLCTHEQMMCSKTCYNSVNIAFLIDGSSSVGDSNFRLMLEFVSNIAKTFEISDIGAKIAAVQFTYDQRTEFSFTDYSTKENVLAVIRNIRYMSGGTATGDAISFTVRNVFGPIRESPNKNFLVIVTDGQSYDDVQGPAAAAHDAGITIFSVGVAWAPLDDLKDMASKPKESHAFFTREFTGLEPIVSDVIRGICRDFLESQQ
UniProt Q9UBF2: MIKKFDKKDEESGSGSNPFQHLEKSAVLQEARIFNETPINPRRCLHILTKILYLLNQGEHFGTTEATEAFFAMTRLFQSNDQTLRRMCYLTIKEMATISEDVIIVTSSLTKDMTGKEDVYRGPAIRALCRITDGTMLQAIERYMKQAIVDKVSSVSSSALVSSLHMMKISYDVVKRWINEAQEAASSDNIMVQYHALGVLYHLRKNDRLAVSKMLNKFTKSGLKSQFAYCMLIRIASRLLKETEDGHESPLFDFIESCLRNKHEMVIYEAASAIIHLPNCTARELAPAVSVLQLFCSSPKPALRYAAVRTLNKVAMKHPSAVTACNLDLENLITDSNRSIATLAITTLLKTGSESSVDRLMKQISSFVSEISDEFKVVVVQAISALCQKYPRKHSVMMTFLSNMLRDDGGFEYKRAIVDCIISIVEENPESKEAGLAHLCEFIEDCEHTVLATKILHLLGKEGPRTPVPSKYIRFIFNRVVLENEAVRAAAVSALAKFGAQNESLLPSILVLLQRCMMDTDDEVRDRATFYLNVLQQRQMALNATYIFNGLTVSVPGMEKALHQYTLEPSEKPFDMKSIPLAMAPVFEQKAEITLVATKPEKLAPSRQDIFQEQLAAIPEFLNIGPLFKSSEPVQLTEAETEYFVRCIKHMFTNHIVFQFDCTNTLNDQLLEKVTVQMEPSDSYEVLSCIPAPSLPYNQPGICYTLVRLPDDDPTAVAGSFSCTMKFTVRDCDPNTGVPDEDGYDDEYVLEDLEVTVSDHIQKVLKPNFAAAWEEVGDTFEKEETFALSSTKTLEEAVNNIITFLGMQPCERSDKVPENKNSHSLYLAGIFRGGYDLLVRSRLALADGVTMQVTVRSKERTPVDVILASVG

How the values were obtained:
Test in all cases: log2 fold change, soluble protein after heating vs DMSO (PISA); higher = thermal stabilisation; K562 lysate, 10 uM; active = over 0.2 and 3.5 SD of the protein, either way, in both replicates (recomputed)
[1] = compound: CCCS(=O)(=O)Nc1ccc(F)c(C(=O)c2c[nH]c3ncc(-c4ccc(Cl)cc4)cc23)c1F [vemurafenib]
How it was run: (§1)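 The values are log-two fold changes in thermal stability compared with solvent controls and come from duplicates. They were obtained by TMTpro 16plex LC-MS/MS, with channel sums equalised, on the supernatant after 21,000xg for 90 min. That supernatant came from crude K562 extract at 1 mg/mL protein treated with 10 μM compound for 30 min, heated for 3 min across 48°C-58°C, pooled and brought to 0.5% NP-40 at 4°C.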

[2] = compound: CCCS(=O)(=O)Nc1ccc(F)c(C(=O)c2c[nH]c3ncc(Cl)cc23)c1F
How it was run: as §1

[3] = compound: CCN(CCCOc1ccc2c(Nc3cc(CC(=O)Nc4cccc(F)c4)[nH]n3)ncnc2c1)CCOP(=O)(O)O [barasertib]
How it was run: as §1

[4] = compound: CC[C@@H]1C(=O)N(C)c2cnc(Nc3ccc(C(=O)NC4CCN(C)CC4)cc3OC)nc2N1C1CCCC1
How it was run: as §1

[5] = compound: CC[C@@H]1C(=O)N(C)c2cnc(Nc3ccc(C(=O)N[C@H]4CC[C@H](N5CCN(CC6CC6)CC5)CC4)cc3OC)nc2N1C(C)C [volasertib]
How it was run: as §1

[6] = compound: CCn1c(C(=O)N(C2CC2)C2CC2)cc2c3c(ncn3C)c(Nc3cc(C)n(C)n3)nc21
How it was run: as §1

[7] = compound: CCn1cc(-c2ccnc3[nH]c(-c4cccc(CN(C)C)c4)cc23)c(-c2ccc(NC(=O)N(C)C)cc2)n1
How it was run: as §1

[8] = compound: CN1CCC(CNc2ccc3ncc(-c4cccc(OC(F)(F)F)c4)n3n2)CC1
How it was run: as §1

[9] = compound: CN1CCN(CCOc2cc(OC3CCOCC3)c3c(Nc4c(Cl)ccc5c4OCO5)ncnc3c2)CC1 [saracatinib]
How it was run: as §1

[10] = compound: CN1CCN(c2nc(C3=C(c4c[nH]c5ccccc45)C(=O)NC3=O)c3ccccc3n2)CC1 [sotrastaurin]
How it was run: as §1

| Target | log2 fold change [1] | log2 fold change [2] | log2 fold change [3] | log2 fold change [4] | log2 fold change [5] | log2 fold change [6] | log2 fold change [7] | log2 fold change [8] | log2 fold change [9] | log2 fold change [10] |
| --- | --- | --- | --- | --- | --- | --- | --- | --- | --- | --- |
| CRACR2A isoform 2 (UniProt Q9BSW2) | inactive: -0.106 | inactive: -0.057 | inactive: -0.105 | inactive: 0.053 | inactive: -0.062 | inactive: 0.005 | inactive: 0.008 | inactive: -0.029 | inactive: 0.017 | inactive: 0.059 |
| COPS2 isoform 2 (UniProt P61201) | inactive: -0.028 | inactive: -0.016 | inactive: 0.009 | inactive: -0.011 | inactive: 0.009 | inactive: 0.007 | inactive: 0.026 | inactive: -0.012 | inactive: 0.007 | inactive: -0.014 |
| COMMD9 (UniProt Q9P000) | inactive: -0.02 | inactive: 0.011 | inactive: 0.069 | inactive: 0.104 | inactive: 0.083 | inactive: -0.063 | inactive: 0.048 | inactive: -0.046 | inactive: -0.014 | inactive: -0.075 |
| COPS8 (UniProt Q99627) | inactive: 0.01 | inactive: 0.027 | inactive: 0.126 | inactive: -0.025 | inactive: 0.051 | inactive: 0.002 | inactive: -0.049 | inactive: -0.026 | inactive: 0.01 | inactive: 0.017 |
| COTL1 (UniProt Q14019) | inactive: -0.002 | inactive: -0.017 | inactive: -0.068 | inactive: 0.019 | inactive: 0.02 | inactive: 0.027 | active: 0.37 | inactive: -0.076 | inactive: -0.019 | inactive: -0.045 |
| CNOT11 (UniProt Q9UKZ1) | inactive: 0.004 | inactive: 0.022 | inactive: 0.034 | inactive: 0.009 | inactive: -0.018 | inactive: -0.022 | inactive: -0.031 | inactive: 0.005 | inactive: 0.006 | inactive: 0.059 |
| COPS6 (UniProt Q7L5N1) | inactive: -0.137 | inactive: -0.005 | inactive: 0.094 | inactive: -0.058 | inactive: -0.015 | inactive: 0.1 | inactive: 0.014 | inactive: 0.018 | inactive: -0.004 | inactive: -0.014 |
| CPT1A (UniProt P50416) | inactive: 0.024 | inactive: 0.035 | inactive: 0.048 | inactive: 0.038 | inactive: 0.032 | inactive: -0.018 | inactive: 0 | inactive: -0.137 | inactive: -0.004 | inactive: -0.014 |
| CNNM4 (UniProt Q6P4Q7) | inactive: 0.02 | inactive: 0.024 | inactive: 0.025 | inactive: -0.308 | inactive: -0.025 | inactive: 0.064 | inactive: 0.12 | inactive: 0.129 | inactive: -0.003 | inactive: -0.023 |
| CPPED1 (UniProt Q9BRF8) | inactive: -0.021 | inactive: -0.022 | inactive: -0.032 | inactive: -0.009 | inactive: 0.032 | inactive: -0.029 | inactive: -0.131 | inactive: 0.133 | inactive: 0.028 | inactive: 0.046 |
| COMMD2 (UniProt Q86X83) | inactive: 0.065 | inactive: 0.09 | inactive: 0.081 | inactive: -0.017 | inactive: -0.063 | inactive: 0.025 | inactive: -0.009 | inactive: -0.007 | inactive: 0.048 | inactive: 0.021 |
| COMMD1 (UniProt Q8N668) | inactive: 0.021 | inactive: 0.048 | inactive: -0.01 | inactive: -0.014 | inactive: 0.007 | inactive: 0.071 | inactive: -0.027 | inactive: 0.033 | inactive: 0.063 | inactive: 0.025 |
| COQ8A (UniProt Q8NI60) | inactive: 0.036 | inactive: -0.009 | inactive: 0.134 | inactive: 0.026 | inactive: -0.026 | inactive: -0.029 | inactive: -0.214 | active: 0.573 | active: 0.697 | inactive: 0.016 |
| COCH (UniProt O43405) | inactive: 0.117 | inactive: -0.021 | inactive: 0.01 | inactive: 0.098 | inactive: 0.039 | inactive: -0.035 | inactive: 0.01 | inactive: 0.028 | inactive: 0.064 | inactive: 0.023 |
| COPG2 (UniProt Q9UBF2) | inactive: 0.029 | inactive: 0.012 | inactive: 0.009 | inactive: -0.019 | inactive: 0 | inactive: -0.018 | inactive: 0.029 | inactive: -0.013 | inactive: 0.008 | inactive: -0.007 |
